For some assays here: Expression values are those of the mRNA of the gene that encodes the peptide; a gene is named only where it was looked up.
Key:
[1] = system: HLA molecules from shock-frozen tissue samples; test: Identification and quantitation of tumor associated peptides presented on the cell surface (HLA immunoprecipitation, LC-MS); parameters: species or system human
[2] = system: source genes (mRNA) in tumor and normal tissue; test: Expression profiling of genes encoding the peptides (RNAseq); parameters: species or system human; conditions: for Gene Expression in tumor samples: very highly over-expressed (+++): tumor entities in which the source gene is very highly over-expressed vs panel of normal tissues (Table 9a)
[3] = cancer entities on which the peptide was detected by LC-MS of HLA ligands
[4] = tumor entities in which the source gene is highly over-expressed vs panel of normal tissues (Table 9a)
[5] = tumor entities in which the source gene is over-expressed vs panel of normal tissues (Table 9a)
[6] = cancer entities on which the peptide was found presented (Table 8b)
[7] = tumor entities in which the source gene is highly over-expressed vs panel of normal tissues (Table 9b)
[8] = tumor entities in which the source gene is over-expressed vs panel of normal tissues (Table 9b)

Row | Substance | Peptide Presentation on cancer entities [1, 3] | Gene Expression in tumor samples: highly over-expressed (++) [2, 4] | Gene Expression in tumor samples: over-expressed (+) [2, 5] | further results
1 | 27: peptide found in PGR (gene looked up) (SGSTLECILYK; listed as Homo sapiens) [compound 27] | UEC | UEC | BRCA | 
2 | 262: peptide found in PGR (gene looked up) (TMWQIPQEFVK; listed as Homo sapiens) [compound 262] |  |  |  | Peptide Presentation on cancer entities [1, 6]: UEC; Gene Expression in tumor samples: highly over-expressed (++) [2, 7]: UEC; Gene Expression in tumor samples: over-expressed (+) [2, 8]: BRCA
3 | 138: peptide found in CTLA4 (gene looked up) (VSLSKMLKK; listed as Homo sapiens) [compound 138] | NHL | CLL | NHL | 
4 | 203: peptide found in RXFP1 (gene looked up) (IVAFIPLSNK; listed as Homo sapiens) [compound 203] |  |  | UEC | 
5 | 123: peptide found in PTPRZ1 (gene looked up) (SLQGLTISY; listed as Homo sapiens) [compound 123] | GBM | GBM |  | 
6 | 182: peptide found in MET (gene looked up) (QICLPAIYK; listed as Homo sapiens) [compound 182] | CRC, GBC, NSCLCadeno, RCC |  | CCC, GBC, NSCLCadeno, RCC | 
7 | 215: peptide found in OXTR (gene looked up) (KIWQNLRLK; listed as Homo sapiens) [compound 215] | CCC, CRC | CCC | GBM, OC | 
8 | 260: peptide found in PGR (gene looked up) (VIAAQLPK; listed as Homo sapiens) [compound 260] |  |  |  | Peptide Presentation on cancer entities [1, 6]: CCC, NSCLCadeno, OC; Gene Expression in tumor samples: highly over-expressed (++) [2, 7]: UEC; Gene Expression in tumor samples: over-expressed (+) [2, 8]: BRCA
9 | 34: peptide found in HTR3A (gene looked up) (AIGTPLIGK; listed as Homo sapiens) [compound 34] | CRC, NSCLCadeno, UEC | NHL, OC | NSCLCadeno | 
10 | 119: peptide found in DNTT (gene looked up) (RMGFRTLSK; listed as Homo sapiens) [compound 119] | AML | AML |  | 
11 | 214: peptide found in DNTT (gene looked up) (KLFTSVFGVGLK; listed as Homo sapiens) [compound 214] | AML | AML |  | 
12 | 15: peptide found in CYP4Z1 (gene looked up) (RLYAPVVNISRL; listed as Homo sapiens) [compound 15] | BRCA |  |  | Gene Expression in tumor samples: very highly over-expressed (+++) [2]: BRCA
13 | 201: peptide found in SRMS (gene looked up) (KVADFGLARLLK; listed as Homo sapiens) [compound 201] | BRCA, CRC, NHL |  | BRCA, CLL, OC, PRCA | 
14 | 196: peptide found in MET (gene looked up) (AISSTVLGK; listed as Homo sapiens) [compound 196] | GBC, PACA, UEC |  | CCC, GBC, RCC | 
15 | 23: peptide found in KISS1R (gene looked up) (RLSPGPRAY; listed as Homo sapiens) [compound 23] | RCC | RCC | BRCA, NSCLCadeno, UEC | 
16 | 16: peptide found in IGF2BP1 (gene looked up) (KVFAEHKISY; listed as Homo sapiens) [compound 16] | HNSCC | CRC, GC, HCC, HNSCC, MEL, NHL, NSCLCadeno, NSCLCsquam, OC, OSCAR, SCLC | CCC, NSCLCother, PACA, RCC, UBC | Gene Expression in tumor samples: very highly over-expressed (+++) [2]: GBC
17 | 113: peptide found in FLT3 (gene looked up) (VSIRNTLLY; listed as Homo sapiens) [compound 113] | HCC | AML |  | 
18 | 84: peptide found in ROS1 (gene looked up) (QLYSPPSPSYR; listed as Homo sapiens) [compound 84] | HNSCC, NSCLCadeno |  | NSCLCadeno, NSCLCother, NSCLCsquam | 
19 | 157: peptide found in HSF2BP (gene looked up) (SLPLQRILAMSK; listed as Homo sapiens) [compound 157] | NSCLCadeno | GBC | BRCA, CCC, HNSCC, MEL, NSCLCadeno, NSCLCother, NSCLCsquam, OC, OSCAR, PACA, UBC | 

Row | Substance | Peptide Presentation on cancer entities [1, 3] | Gene Expression in tumor samples: highly over-expressed (++) [2, 4] | Gene Expression in tumor samples: over-expressed (+) [2, 5] | further results
20 | 166: peptide found in ADAMTS12 (gene looked up) (KVIAPGVIY; listed as Homo sapiens) [compound 166] | CCC | CCC | BRCA, CRC, GBC, GC, HNSCC, NSCLCadeno, NSCLCother, NSCLCsquam, OSCAR, PACA, UBC | 
21 | 186: peptide found in LPAR4 (gene looked up) (CTLPFKIFY; listed as Homo sapiens) [compound 186] | HNSCC, NSCLCadeno, PACA, UEC |  | AML, GBM | 
22 | 69: peptide found in GPR143 (gene looked up) (GLSTILLYH; listed as Homo sapiens) [compound 69] | CCC, CRC, GBC, GBM, MEL, NSCLCadeno, NSCLCsquam, OSCAR, PACA, RCC, UEC | MEL |  | 
23 | 167: peptide found in PDE11A (gene looked up) (MLKQARRPLFR; listed as Homo sapiens) [compound 167] | NSCLCadeno |  | BRCA, HCC, HNSCC, PRCA, SCLC, UEC | 
24 | 272: peptide found in KLK3 (gene looked up) (AVCGGVLVH; listed as Homo sapiens) [compound 272] | PRCA |  |  | Gene Expression in tumor samples highly over-expressed (++) ([2]; source gene of the peptide, RNAseq, tumors compared to a panel of normal tissues): PRCA
25 | 173: peptide found in FERMT1 (gene looked up) (VSYNRLIK; listed as Homo sapiens) [compound 173] | GBC, HCC, HNSCC, MEL, PRCA, RCC, UEC | CRC | GC, HNSCC, OSCAR, UBC | 
26 | 79: peptide found in CXCR3 (gene looked up) (AVAAVLLSR; listed as Homo sapiens) [compound 79] | CCC, CLL, CRC, HNSCC, MEL, NHL, NSCLCadeno, NSCLCsquam, OSCAR, RCC, UEC | CLL |  | 
27 | 5: peptide found in SLC6A3 (gene looked up) (AMVPIYAAY; listed as Homo sapiens) [compound 5] | RCC |  | NSCLCadeno, NSCLCsquam, SCLC | Gene Expression in tumor samples: very highly over-expressed (+++) [2]: RCC
28 | 134: peptide found in FERMT1 (gene looked up) (SLLKPSGDYFK; listed as Homo sapiens) [compound 134] | CRC | CRC | GC, HNSCC, NSCLCsquam, OSCAR, UBC | 
29 | 220: peptide found in CDK6 (gene looked up) (ALPRQAFHSK; listed as Homo sapiens) [compound 220] | AML | AML | GBM, GC | 
30 | 216: peptide found in OXTR (gene looked up) (RVSSVKLISK; listed as Homo sapiens) [compound 216] | CCC, CRC, NSCLCadeno, PRCA | CCC | GBM, OC | 
31 | 204: peptide found in RXFP1 (gene looked up) (VAFIPLSNK; listed as Homo sapiens) [compound 204] |  |  | UEC | 
32 | 89: peptide found in KISS1R (gene looked up) (VIYVICRHK; listed as Homo sapiens) [compound 89] |  | RCC | NSCLCadeno, UEC | 
33 | 136: peptide found in CYP1A1 (gene looked up) (ALSRMSQQY; listed as Homo sapiens) [compound 136] |  | NSCLCother |  | 
34 | RVYPHKTLY (listed as Homo sapiens) [SEQ ID NO: 1] | hepatocellular carcinoma, and urinary bladder carcinoma |  |  | 
35 | 73 (RCFSGPYLNK; listed as Homo sapiens) [compound 73] | BRCA, MEL, NHL |  |  | 
36 | 121 (LLPAARATSR; listed as Homo sapiens) [compound 121] | NSCLCsquam |  |  | 
37 | 24 (KLETGVVKK; listed as Homo sapiens) [compound 24] | RCC |  |  | 
